Laboratory results from US9856290B2 (SUSSEX RESEARCH LABORATORIES INC., priority 2013, dated 2018).

Tests used:
[1] = general procedure: Fmoc solid-phase peptide synthesis; H-L-Ser(Ac7-β-Mal)-2-Cl-Trityl resin; HBTU, DIPEA; conditions: whole synthesis
[2] = general procedure: Fmoc solid-phase peptide synthesis; H-L-Ser(t-Bu)-2-Cl-Trityl resin; H-L-Ser(sugar)-2-Cl-Trityl resin; HBTU, DIPEA; conditions: for final HPLC purity: analytical RP-HPLC
[3] = general procedure: Fmoc solid-phase peptide synthesis; H-L-Ser(t-Bu)-2-Cl-Trityl resin; HBTU, DIPEA; conditions: whole synthesis, scale 0.1 mmol
[4] = general procedure: Fmoc solid-phase peptide synthesis; H-L-Ser(Ac4-β-Gal)-2-Cl-Trityl resin; HBTU, DIPEA; conditions: whole synthesis
[5] = general procedure: Fmoc solid-phase peptide synthesis; H-L-Ser(Ac4-β-Glc)-2-Cl-Trityl resin; HBTU, DIPEA; conditions: whole synthesis
[6] = whole synthesis, scale of the general procedure 0.1 mmol, run 1
[7] = whole synthesis, scale of the general procedure 0.1 mmol, run 2
[8] = whole synthesis, scale of the general procedure 0.1 mmol
[9] = whole synthesis, scale 0.1 mmol

Substance | final HPLC purity [2, 6] [%] | final HPLC purity [2, 7] [%] | isolated yield [2, 8] [%] | isolated mass [3] [mg] | other results
PEPTIDE1{[Pal].K.T.T.K.[Ser(Ac7-b-Mal)]}$$$$V2.0 | 97.8 | >95 | 24 | – | isolated mass [1]: 102 mg
PEPTIDE1{[Pal].K.[Thr(Ac7-b-Mal)].T.K.S}$$$$V2.0 | 99.1 | >97 | – | 90 | isolated yield [2, 9]: 63% yield
Pal-KT(Ac4-β-Glc)TKS-OH (KTTKS; N-palmitoyl; Thr2 O-Ac4-β-Glc; MOD_RES (1)..(1) having an N-terminal palmitoyl; CARBOHYD (2)..(2) glycosylated with per-acetylated beta-glucose; listed as Homo sapiens) | 95.6 | >95 | – | 70 | isolated yield [3]: 62%
Pal-KT(β-Glc)TKS-OH (KTTKS; N-palmitoyl; Thr2 O-β-Glc; MOD_RES (1)..(1) having an N-terminal palmitoyl; CARBOHYD (2)..(2) glycosylated with beta-glucose; listed as Homo sapiens) | – | – | – | – | final HPLC purity ([2]; late stage modification step): 99%
Pal-KTT(Ac7-β-Mal)KS-OH (KTTKS; N-palmitoyl; glycosylated Thr; MOD_RES (1)..(1) having an N-terminal palmitoyl; CARBOHYD (3)..(3) glycosylated with peracetylated beta-maltose; listed as Homo sapiens) | 98.5 | >95 | – | 26 | isolated yield [2, 9]: 18% yield
Pal-KTTKS(Ac4-β-Gal)-OH (N-palmitoyl; Ser5 O-Ac4-β-Gal; MOD_RES (1)..(1) having an N-terminal palmitoyl; CARBOHYD (5)..(5) glycosylated with per-acetylated beta-galactose; listed as Homo sapiens) | 99.6 | >100 | 41 | – | isolated mass [4]: 140 mg
Pal-KTTKS(Ac4-β-Glc)-OH (N-palmitoyl; Ser5 O-Ac4-β-Glc; MOD_RES (1)..(1) having an N-terminal palmitoyl; CARBOHYD (5)..(5) glycosylated with per-acetylated beta-glucose; listed as Homo sapiens) | – | – | 40 | – | final HPLC purity [2, 8]: 99.6%; isolated mass [5]: 136 mg

For part of these data: HELM strings list residues between dots; [ac] is acetyl, [am] amide, other brackets name non-standard units.
